Values from PubChem BioAssay AID504784 (Drosophila RNAi Screening Center, 2011).
The screen tested about 17,000 reagents; below is an unselected part of those that have a named target and a result. 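Each column is one replicate's B-score; the combined score over replicates was not deposited, so single values may mislead.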 A plus sign joins genes that one reagent is predicted to hit. Further read-outs or replicates are left out here.

- Aim: 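Search for regulators of lipid droplet storage in oleate-fed fly cells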 (primary screen)
- System: Drosophila Kc167 embryonic cells
- Reagents: long dsRNA against Drosophila genes, about 250 ng dsRNA per well
- Timing: 4 days
- Challenge: cells fed 400 µM oleic acid bound to BSA
- Read-out: 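Cells imaged and segmented; ratio of lipid droplet area to nuclear area, log-transformed, then normalised as a B-score over the screen; higher means more stored lipid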
- Direction: droplet/nuclear area B-score: higher = more stored lipid (overstorage)

gene | amplicon | droplet/nuclear area B-score, replicate 1
Cpr62Bb (Cuticular protein 62Bb) | DRSC08404 | 1.47
CG11808 | DRSC06088 | 7
CG2070 | DRSC06814 | 2.4
TBC1D16 (TBC1 domain family member 16) | DRSC02841 | -0.261
RasGAP1 (Ras GTPase activating protein 1) | DRSC11172 | 0.36
wdn (wings down) | DRSC17095 | -1.82
CG13983 | DRSC02315 | -0.146
CG10638 | DRSC09762 | -0.764
Tl (Toll) | DRSC16885 | -1.06
CG7632 | DRSC11842 | 1.28
CG42557 + CG42558 | DRSC13963 | 0.317
CG42557 + CG42558 | DRSC16329 | -1.11

Records above whose gene name starts with C or c (8):
gene | amplicon | droplet/nuclear area B-score, replicate 1
Cpr62Bb (Cuticular protein 62Bb) | DRSC08404 | 1.47
CG11808 | DRSC06088 | 7
CG2070 | DRSC06814 | 2.4
CG13983 | DRSC02315 | -0.146
CG10638 | DRSC09762 | -0.764
CG7632 | DRSC11842 | 1.28
CG42557 + CG42558 | DRSC13963 | 0.317
CG42557 + CG42558 | DRSC16329 | -1.11

Further entries follow:
gene | amplicon | droplet/nuclear area B-score, replicate 1
rdo (reduced ocelli) | DRSC02452 | -2.97
CG14352 | DRSC00382 | -2.18
Arp8 (Actin-related protein 8) | DRSC20059 | -0.457
nab | DRSC08455 | -0.563
nab | DRSC08456 | -0.188
CG6726 | DRSC16101 | 1.53
Vha16-3 (Vacuolar H[+] ATPase 16kD subunit 3) | DRSC10872 | 0.451
CG13227 | DRSC06347 | 0.0199
Prx6c (Peroxiredoxin 6c) | DRSC06080 | 1.06
CG13008 | DRSC19527 | 2.13
CG13008 | DRSC19528 | 0.624
CG16799 | DRSC06626 | 0.0594
CG16799 | DRSC21553 | 0.804
Tektin-C (Tektin C) | DRSC09741 | 2.76
hdm (hold'em) | DRSC18013 | 0.358
HP1b (Heterochromatin Protein 1b) | DRSC18418 | -2.33
Cyp4s3 (Cytochrome P450 4s3) | DRSC20241 | 1.18
Cyp4s3 (Cytochrome P450 4s3) | DRSC22340 | 1.1
CG33506 | DRSC05981 | -0.839
Cp38 (Chorion protein 38) | DRSC18453 | 0.395
Elk (Eag-like K[+] channel) | DRSC07608 | -1.44
kcc (kazachoc) | DRSC04316 | -0.35
kcc (kazachoc) | DRSC04516 | 0.439
